In US20070154905A1:
Results are given in words; binding and its absence hold for the method and conditions named. Some results given as binding are weak or reduced against the parent protein; the word gives no strength.

The chains behind the UniProt entries cited, without tags or fusion partners. Where a name states a change or a piece, a line headed by the entry shows the natural chain unless it says otherwise. Residues count along the entry.
intracellular domain of human p55 TNF receptor (residues 206-426) (P19438, residues 235-455): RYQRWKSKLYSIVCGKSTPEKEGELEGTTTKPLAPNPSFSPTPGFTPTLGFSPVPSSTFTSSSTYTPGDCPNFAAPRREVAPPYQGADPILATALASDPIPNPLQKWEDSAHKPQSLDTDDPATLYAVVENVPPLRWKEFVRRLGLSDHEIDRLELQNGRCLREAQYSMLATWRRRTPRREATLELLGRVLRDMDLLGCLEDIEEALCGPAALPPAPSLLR
p55 TNF-R death domain, residues 326-426 (P19438, residues 355-455): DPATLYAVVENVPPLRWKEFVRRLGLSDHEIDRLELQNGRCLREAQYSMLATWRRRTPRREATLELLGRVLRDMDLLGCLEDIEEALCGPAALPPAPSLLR
UniProt Q13158: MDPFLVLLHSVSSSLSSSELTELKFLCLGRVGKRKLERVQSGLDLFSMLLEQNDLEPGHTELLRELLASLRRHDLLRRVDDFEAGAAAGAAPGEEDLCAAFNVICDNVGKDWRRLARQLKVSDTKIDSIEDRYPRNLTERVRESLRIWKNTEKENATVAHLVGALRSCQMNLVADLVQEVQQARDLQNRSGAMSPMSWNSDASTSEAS

What was measured:
[1] = molecular target: p55 TNF-R death domain, residues 326-426 (UniProt P19438); assay: yeast two-hybrid, β-galactosidase expression
[2] = molecular target: MORT-1 fragment, amino acids 130-245 (C-terminal part with the death domain homology region) (human) (UniProt Q13158); assay: yeast two-hybrid, β-galactosidase expression
[3] = molecular target: intracellular domain of human p55 TNF receptor (residues 206-426) (human) (UniProt P19438); assay: yeast two-hybrid, β-galactosidase expression
[4] = molecular target: T1, MORT-1 protein (full-length) (human); assay: yeast two-hybrid, β-galactosidase expression
T1 sequence: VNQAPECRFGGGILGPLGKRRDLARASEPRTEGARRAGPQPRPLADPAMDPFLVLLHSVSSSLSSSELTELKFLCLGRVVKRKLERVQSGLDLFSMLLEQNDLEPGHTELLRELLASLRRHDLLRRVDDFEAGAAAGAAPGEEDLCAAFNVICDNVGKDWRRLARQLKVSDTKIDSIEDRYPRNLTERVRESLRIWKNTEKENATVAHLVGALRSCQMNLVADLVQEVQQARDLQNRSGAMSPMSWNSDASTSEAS

[5] = molecular target: intracellular domain of human p55 TNF receptor (residues 206-426) (human) (UniProt P19438); assay: yeast two-hybrid screen of a human B-cell library
[6] = molecular target: T1, MORT-1 protein (full-length) (human); assay: yeast two-hybrid screen of a human B-cell library

Measured: binding

B1: MORT-1-binding protein of Example 2 (product of the two cDNA clones from the human B-cell library) (protein, UniProt Q15628 1-312, looked up)
chain: MAAGQNGHEEWVGSAYLFVESSLDKVVLSDAYAHPQQKVAVYRALQAALAESGGSPDVLQMLKIHRSDPQLIVQLRFCGRQPCGRFLRAYREGALRAALQRSLAAALAQHSVPLQLELRAGAERLDALLADEERCLSCILAQQPDRLRDEELAELEDALRNLKCGSGARGGDGEVASAPLQPPVPSLSEVKPPPPPPPAQTFLFQGQPVVNRPLSLKDQQTFARSVGLKWRKVGRSLQRGCRALRDPALDSLAYEYEREGLYEQAFQLLRRFVQAEGRRATLQRLVEALEENELTSLAEDLLGLTDPNGGLA
binds: all assays above
